Results taken from the supplement of paper PMC12823440, “Inhibitors supercharge kinase turnover through native proteolytic circuits” (Nature, 2025).
Where a name gives a salt, the structure may show the parent alone. The list shows a part of the results. The calls rarely recur for the same compound in another form.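 Kinases, fused to nanoluciferase, were expressed in K562 cells; luminescence was measured every 4 h from 2 to 18 h as percent of control (DMSO = 100%, positive control = 0%). A time point is decreased if signal falls significantly (2 sigma). Hits were called by the authors by a rule that is not shown; the count of time points alone does not decide it.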

Protein sequences, listed by entry. Tags and fused reporters are not part of them. Lines headed by an entry give the natural chain unless they say otherwise; changes in a name come on top.
UniProt Q9Y616: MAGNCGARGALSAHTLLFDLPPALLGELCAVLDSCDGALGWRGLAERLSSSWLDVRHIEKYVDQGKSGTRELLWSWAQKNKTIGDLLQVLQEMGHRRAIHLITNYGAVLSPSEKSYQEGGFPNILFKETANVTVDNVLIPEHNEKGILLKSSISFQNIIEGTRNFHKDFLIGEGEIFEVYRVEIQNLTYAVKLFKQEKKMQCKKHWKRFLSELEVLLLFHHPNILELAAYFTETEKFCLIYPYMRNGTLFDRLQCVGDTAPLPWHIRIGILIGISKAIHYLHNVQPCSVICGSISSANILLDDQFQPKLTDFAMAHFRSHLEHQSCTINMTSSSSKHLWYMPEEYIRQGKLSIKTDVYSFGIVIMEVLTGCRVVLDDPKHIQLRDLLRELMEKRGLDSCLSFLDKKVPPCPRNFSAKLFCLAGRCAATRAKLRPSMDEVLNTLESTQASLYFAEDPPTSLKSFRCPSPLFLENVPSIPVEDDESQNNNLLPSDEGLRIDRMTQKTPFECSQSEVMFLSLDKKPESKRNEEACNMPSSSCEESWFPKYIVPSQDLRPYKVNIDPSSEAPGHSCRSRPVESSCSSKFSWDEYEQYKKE
UniProt P06239: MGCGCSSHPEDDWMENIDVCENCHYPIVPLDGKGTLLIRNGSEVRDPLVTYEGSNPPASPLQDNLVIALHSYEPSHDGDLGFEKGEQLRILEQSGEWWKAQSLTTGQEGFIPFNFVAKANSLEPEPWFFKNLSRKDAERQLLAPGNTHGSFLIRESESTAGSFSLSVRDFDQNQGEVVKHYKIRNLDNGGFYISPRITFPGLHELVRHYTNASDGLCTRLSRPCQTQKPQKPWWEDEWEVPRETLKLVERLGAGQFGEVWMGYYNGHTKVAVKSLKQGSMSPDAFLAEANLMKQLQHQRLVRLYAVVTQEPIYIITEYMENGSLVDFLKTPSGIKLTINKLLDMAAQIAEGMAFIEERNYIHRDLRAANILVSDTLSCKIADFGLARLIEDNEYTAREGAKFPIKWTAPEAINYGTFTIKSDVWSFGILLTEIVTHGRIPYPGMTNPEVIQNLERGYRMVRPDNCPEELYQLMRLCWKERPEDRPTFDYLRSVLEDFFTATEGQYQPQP
UniProt Q8IWU2: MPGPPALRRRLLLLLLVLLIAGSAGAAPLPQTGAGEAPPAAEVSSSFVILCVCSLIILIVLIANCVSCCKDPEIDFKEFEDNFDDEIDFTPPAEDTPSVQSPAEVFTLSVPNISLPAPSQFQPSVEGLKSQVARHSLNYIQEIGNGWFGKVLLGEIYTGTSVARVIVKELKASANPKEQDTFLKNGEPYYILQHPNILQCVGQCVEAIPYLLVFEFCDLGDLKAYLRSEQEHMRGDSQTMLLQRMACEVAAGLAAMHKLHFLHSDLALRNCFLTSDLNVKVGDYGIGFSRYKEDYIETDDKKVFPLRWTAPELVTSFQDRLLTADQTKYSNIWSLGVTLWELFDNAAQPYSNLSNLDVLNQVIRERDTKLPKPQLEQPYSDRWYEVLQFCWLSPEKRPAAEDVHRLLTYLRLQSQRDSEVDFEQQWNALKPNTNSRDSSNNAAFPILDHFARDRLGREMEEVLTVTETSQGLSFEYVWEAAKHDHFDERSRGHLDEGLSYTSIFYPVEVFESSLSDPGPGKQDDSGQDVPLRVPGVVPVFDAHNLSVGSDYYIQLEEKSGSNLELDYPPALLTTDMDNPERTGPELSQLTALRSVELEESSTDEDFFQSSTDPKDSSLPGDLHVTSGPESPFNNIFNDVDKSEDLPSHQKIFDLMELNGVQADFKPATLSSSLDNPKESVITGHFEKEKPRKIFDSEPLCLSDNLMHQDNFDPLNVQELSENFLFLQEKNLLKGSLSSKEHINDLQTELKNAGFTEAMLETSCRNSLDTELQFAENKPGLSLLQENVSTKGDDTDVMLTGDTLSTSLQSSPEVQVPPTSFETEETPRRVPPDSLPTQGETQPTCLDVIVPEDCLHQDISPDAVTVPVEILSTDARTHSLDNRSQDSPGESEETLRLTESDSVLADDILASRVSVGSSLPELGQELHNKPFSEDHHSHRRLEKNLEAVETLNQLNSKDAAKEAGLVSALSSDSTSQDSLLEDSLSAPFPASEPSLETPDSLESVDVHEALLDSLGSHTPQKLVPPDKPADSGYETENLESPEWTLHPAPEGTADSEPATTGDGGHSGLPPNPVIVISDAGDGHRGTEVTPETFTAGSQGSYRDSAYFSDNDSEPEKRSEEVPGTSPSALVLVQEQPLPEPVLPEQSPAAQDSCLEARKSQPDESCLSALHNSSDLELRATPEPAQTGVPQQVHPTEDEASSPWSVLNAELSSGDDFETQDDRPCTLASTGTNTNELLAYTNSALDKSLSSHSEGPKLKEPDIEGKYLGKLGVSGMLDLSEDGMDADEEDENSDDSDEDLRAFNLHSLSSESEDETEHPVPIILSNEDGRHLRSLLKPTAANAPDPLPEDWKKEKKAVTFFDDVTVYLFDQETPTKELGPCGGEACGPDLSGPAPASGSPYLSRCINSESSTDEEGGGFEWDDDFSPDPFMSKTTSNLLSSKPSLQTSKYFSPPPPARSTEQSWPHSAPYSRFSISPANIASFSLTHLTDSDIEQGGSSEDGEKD
UniProt Q12851: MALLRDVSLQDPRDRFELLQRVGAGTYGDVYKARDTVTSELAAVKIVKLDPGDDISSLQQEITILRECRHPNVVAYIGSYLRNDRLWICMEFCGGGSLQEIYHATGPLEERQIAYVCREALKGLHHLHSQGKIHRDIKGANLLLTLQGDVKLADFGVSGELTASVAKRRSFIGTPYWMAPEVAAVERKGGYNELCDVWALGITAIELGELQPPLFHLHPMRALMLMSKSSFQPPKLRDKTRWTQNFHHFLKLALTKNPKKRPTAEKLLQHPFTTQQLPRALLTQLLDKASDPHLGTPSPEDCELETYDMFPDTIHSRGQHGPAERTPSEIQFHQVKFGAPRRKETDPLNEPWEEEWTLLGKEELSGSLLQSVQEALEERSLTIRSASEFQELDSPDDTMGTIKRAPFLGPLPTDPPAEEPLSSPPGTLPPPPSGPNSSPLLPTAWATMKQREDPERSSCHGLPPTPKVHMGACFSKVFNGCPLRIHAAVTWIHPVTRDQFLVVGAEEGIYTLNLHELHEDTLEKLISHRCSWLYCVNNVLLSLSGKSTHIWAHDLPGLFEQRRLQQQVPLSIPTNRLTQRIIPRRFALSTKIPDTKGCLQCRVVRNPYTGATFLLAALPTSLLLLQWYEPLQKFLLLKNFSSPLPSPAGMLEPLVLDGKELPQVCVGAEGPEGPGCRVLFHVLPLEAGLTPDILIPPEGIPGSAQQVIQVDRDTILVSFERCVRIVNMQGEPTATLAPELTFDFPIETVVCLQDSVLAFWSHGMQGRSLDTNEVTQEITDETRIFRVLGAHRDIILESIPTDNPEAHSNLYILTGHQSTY
UniProt P31152, whole entry: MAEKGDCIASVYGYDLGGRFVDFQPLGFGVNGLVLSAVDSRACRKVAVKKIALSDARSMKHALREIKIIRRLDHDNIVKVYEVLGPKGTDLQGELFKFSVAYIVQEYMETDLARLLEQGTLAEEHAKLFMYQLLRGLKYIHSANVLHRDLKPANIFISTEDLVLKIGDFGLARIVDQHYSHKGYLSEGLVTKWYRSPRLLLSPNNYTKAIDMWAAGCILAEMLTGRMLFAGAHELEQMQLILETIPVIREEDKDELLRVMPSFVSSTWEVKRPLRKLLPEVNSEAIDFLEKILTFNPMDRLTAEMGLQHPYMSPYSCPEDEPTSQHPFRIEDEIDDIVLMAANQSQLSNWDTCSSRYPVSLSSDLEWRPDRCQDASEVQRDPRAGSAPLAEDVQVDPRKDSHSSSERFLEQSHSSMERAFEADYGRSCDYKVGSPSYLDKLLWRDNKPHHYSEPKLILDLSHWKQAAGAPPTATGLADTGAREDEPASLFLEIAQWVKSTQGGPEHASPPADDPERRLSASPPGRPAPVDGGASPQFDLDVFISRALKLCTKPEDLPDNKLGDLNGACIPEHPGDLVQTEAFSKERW
UniProt Q9BUB5: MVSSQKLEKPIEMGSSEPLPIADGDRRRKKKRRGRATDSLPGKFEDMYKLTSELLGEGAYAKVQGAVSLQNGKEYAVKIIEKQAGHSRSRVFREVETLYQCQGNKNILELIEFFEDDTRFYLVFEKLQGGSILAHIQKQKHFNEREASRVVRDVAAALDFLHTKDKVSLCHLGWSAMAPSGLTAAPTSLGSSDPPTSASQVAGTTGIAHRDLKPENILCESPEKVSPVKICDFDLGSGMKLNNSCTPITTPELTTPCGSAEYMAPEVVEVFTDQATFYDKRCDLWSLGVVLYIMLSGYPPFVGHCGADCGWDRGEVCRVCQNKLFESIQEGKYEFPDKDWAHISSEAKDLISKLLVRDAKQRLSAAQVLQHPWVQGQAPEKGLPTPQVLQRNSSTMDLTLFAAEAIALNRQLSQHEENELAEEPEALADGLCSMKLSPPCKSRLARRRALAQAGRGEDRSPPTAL
UniProt Q16620, whole entry, looked up: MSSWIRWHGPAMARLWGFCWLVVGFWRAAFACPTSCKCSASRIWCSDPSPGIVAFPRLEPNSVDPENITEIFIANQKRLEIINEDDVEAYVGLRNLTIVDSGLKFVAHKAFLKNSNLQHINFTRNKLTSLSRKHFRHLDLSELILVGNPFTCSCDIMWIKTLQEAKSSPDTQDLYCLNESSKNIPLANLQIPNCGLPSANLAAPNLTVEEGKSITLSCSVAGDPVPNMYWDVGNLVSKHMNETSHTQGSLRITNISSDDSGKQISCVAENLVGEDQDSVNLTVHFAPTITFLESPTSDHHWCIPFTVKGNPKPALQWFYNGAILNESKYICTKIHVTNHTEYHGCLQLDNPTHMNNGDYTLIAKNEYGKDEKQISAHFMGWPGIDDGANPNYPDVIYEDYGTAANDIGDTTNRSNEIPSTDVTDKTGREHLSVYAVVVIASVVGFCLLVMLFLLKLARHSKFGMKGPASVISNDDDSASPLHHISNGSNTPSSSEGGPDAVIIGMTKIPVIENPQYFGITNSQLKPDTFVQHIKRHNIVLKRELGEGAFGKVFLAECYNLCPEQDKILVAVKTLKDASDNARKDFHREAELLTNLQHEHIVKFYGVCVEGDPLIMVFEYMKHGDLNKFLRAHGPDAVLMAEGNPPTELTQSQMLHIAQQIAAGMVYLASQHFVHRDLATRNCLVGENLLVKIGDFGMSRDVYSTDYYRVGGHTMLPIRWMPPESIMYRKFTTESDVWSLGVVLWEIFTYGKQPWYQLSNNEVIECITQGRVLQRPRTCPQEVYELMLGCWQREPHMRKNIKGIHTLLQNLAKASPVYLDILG
UniProt Q16288, whole entry, looked up: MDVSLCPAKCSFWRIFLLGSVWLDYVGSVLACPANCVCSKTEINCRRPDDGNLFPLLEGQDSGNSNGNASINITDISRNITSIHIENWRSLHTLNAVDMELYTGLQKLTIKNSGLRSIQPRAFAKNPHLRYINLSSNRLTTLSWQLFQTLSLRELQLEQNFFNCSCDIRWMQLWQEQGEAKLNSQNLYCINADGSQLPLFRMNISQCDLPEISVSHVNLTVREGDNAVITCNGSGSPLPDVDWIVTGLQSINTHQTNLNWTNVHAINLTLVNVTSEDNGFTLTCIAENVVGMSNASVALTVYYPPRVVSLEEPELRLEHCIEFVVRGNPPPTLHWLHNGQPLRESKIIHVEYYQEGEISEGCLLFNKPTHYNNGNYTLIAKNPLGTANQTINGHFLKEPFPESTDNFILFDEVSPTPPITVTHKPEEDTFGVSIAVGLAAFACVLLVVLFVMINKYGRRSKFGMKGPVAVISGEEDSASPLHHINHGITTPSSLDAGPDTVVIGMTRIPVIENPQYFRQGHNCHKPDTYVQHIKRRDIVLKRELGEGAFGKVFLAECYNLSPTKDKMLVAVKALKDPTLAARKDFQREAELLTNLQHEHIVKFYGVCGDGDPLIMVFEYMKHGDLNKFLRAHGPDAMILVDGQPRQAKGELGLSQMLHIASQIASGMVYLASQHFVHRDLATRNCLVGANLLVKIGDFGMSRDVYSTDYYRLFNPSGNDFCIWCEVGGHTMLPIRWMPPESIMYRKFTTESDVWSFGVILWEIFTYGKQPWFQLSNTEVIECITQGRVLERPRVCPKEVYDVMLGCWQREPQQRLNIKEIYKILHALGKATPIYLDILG
UniProt Q96KB5: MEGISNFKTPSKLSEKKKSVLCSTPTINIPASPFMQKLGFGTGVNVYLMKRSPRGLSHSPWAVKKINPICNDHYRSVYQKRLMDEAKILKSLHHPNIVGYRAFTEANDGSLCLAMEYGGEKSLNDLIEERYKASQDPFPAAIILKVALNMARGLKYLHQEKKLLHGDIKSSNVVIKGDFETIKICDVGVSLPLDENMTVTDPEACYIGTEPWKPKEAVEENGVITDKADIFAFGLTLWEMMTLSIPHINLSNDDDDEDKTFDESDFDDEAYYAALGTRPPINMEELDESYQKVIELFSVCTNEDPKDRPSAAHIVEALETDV

Legend:
Assay in all cases: kinase-Nluc reporter destabilization hit call (1 = scored as downregulated) (binary); higher = compound decreases kinase abundance
Conditions in all cases: K562; 2-18 h
IRAK3 = IRAK3 (UniProt Q9Y616)
JAK1 = JAK1 (UniProt P23458)
LCK = LCK (UniProt P06239)
LIMK1 = LIMK1 (UniProt P53667)
LIMK2 = LIMK2 (UniProt P53671)
LMTK2 = LMTK2 (UniProt Q8IWU2)
LYN = LYN (UniProt P07948)
MAP2K1 = MAP2K1 (UniProt Q02750)
MAP2K2 = MAP2K2 (UniProt P36507)
MAP4K2 = MAP4K2 (UniProt Q12851)
MAPK1 = MAPK1 (UniProt P28482)
MAPK4 = MAPK4 (UniProt P31152)
MAPKAPK2 = MAPKAPK2 (UniProt P49137)
MKNK1 = MKNK1 (UniProt Q9BUB5)
NTRK2 = NTRK2 (UniProt Q16620)
NTRK3 = NTRK3 (UniProt Q16288)
PAK4 = PAK4 (UniProt O96013)
PBK = PBK (UniProt Q96KB5)
PDGFRB = PDGFRB (UniProt P09619)
PDK1 = PDK1 (UniProt Q15118)

Measured: kinase-Nluc reporter destabilization hit call

CCOC(=O)N1C/C(=C/c2ccccc2F)C(=O)/C(=C\c2ccccc2F)C1 (2.5 µM)
inactive: IRAK3 = 0 | JAK1 = 0 | LCK 0 | LIMK1 = 0 | LIMK2 = 0 | LMTK2 = 0 | LYN 0 | MAP2K1 = 0 | MAP2K2 = 0 | MAP4K2 = 0 | MAPK1 = 0 | MAPK4 = 0 | MAPKAPK2 = 0 | MKNK1 = 0 | NTRK2 = 0 | NTRK3 = 0 | PAK4 = 0 | PBK 0 | PDGFRB 0 | PDK1 = 0

C=CC(=O)Nc1cccc(CNc2nc(Nc3ccc(N4CCN(C)CC4)cc3OC)ncc2Cl)c1 (10 µM)
inactive: IRAK3 = 0 | JAK1 = 0 | LCK 0 | LIMK1 = 0 | LIMK2 = 0 | LMTK2 = 0 | LYN 0 | MAP2K1 = 0 | MAP2K2 = 0 | MAP4K2 = 0 | MAPK1 = 0 | MAPK4 = 0 | MAPKAPK2 = 0 | MKNK1 = 0 | NTRK2 = 0 | NTRK3 = 0 | PAK4 = 0 | PBK 0 | PDGFRB 0 | PDK1 = 0

Cn1cnc([N+](=O)[O-])c1C[N+](C)(C)C/C=C/C(=O)Nc1cc2c(Nc3ccc(Cl)c(Br)c3)ncnc2cn1 [Tarloxotinib (bromide)] (10 µM)
inactive: IRAK3 = 0 | JAK1 = 0 | LCK 0 | LIMK1 = 0 | LIMK2 = 0 | LMTK2 = 0 | LYN 0 | MAP2K1 = 0 | MAP2K2 = 0 | MAP4K2 = 0 | MAPK1 = 0 | MAPK4 = 0 | MAPKAPK2 = 0 | MKNK1 = 0 | NTRK2 = 0 | NTRK3 = 0 | PAK4 = 0 | PBK 0 | PDGFRB 0 | PDK1 = 0

CCN(CC)CCC(=O)N1N=C(c2c(-c3ccccc3)c3cc(Br)ccc3[nH]c2=O)CC1c1ccc(Br)cc1 (stereo not given) (2.5 µM)
inactive: IRAK3 = 0 | JAK1 = 0 | LCK 0 | LIMK1 = 0 | LIMK2 = 0 | LMTK2 = 0 | LYN 0 | MAP2K1 = 0 | MAP2K2 = 0 | MAP4K2 = 0 | MAPK1 = 0 | MAPK4 = 0 | MAPKAPK2 = 0 | MKNK1 = 0 | NTRK2 = 0 | NTRK3 = 0 | PAK4 = 0 | PBK 0 | PDGFRB 0 | PDK1 = 0

Pulled by compound from above, 2 records:
CCN(CC)CCC(=O)N1N=C(c2c(-c3ccccc3)c3cc(Br)ccc3[nH]c2=O)CC1c1ccc(Br)cc1 (stereo not given) (2.5 µM)
inactive: IRAK3 = 0 | JAK1 = 0 | LCK 0 | LIMK1 = 0 | LIMK2 = 0 | LMTK2 = 0 | LYN 0 | MAP2K1 = 0 | MAP2K2 = 0 | MAP4K2 = 0 | MAPK1 = 0 | MAPK4 = 0 | MAPKAPK2 = 0 | MKNK1 = 0 | NTRK2 = 0 | NTRK3 = 0 | PAK4 = 0 | PBK 0 | PDGFRB 0 | PDK1 = 0

C=CC(=O)Nc1cccc(CNc2nc(Nc3ccc(N4CCN(C)CC4)cc3OC)ncc2Cl)c1 (10 µM)
inactive: IRAK3 = 0 | JAK1 = 0 | LCK 0 | LIMK1 = 0 | LIMK2 = 0 | LMTK2 = 0 | LYN 0 | MAP2K1 = 0 | MAP2K2 = 0 | MAP4K2 = 0 | MAPK1 = 0 | MAPK4 = 0 | MAPKAPK2 = 0 | MKNK1 = 0 | NTRK2 = 0 | NTRK3 = 0 | PAK4 = 0 | PBK 0 | PDGFRB 0 | PDK1 = 0

(listing goes on)

COc1ccc(/C=C/C(=O)C2(C(=O)/C=C/c3ccc(OC)c(OC)c3)CCCCC2)cc1OC (2.5 µM)
inactive: IRAK3 = 0 | JAK1 = 0 | LCK 0 | LIMK1 = 0 | LIMK2 = 0 | LMTK2 = 0 | LYN 0 | MAP2K1 = 0 | MAP2K2 = 0 | MAP4K2 = 0 | MAPK1 = 0 | MAPK4 = 0 | MAPKAPK2 = 0 | MKNK1 = 0 | NTRK2 = 0 | NTRK3 = 0 | PAK4 = 0 | PBK 0 | PDGFRB 0 | PDK1 = 0

O=c1[nH]c(C2CCCN2)nc2c1oc1ccc(Cl)cc12 (stereo not given) [XL413 (hydrochloride)] (10 µM)
inactive: IRAK3 = 0 | JAK1 = 0 | LCK 0 | LIMK1 = 0 | LIMK2 = 0 | LMTK2 = 0 | LYN 0 | MAP2K1 = 0 | MAP2K2 = 0 | MAP4K2 = 0 | MAPK1 = 0 | MAPK4 = 0 | MAPKAPK2 = 0 | MKNK1 = 0 | NTRK2 = 0 | NTRK3 = 0 | PAK4 = 0 | PBK 0 | PDGFRB 0 | PDK1 = 0

CC(C)c1cc(/C=C(\C#N)C(=O)NCCCc2ccccc2)cc(C(C)C)c1O (10 µM)
inactive: IRAK3 = 0 | JAK1 = 0 | LCK 0 | LIMK1 = 0 | LIMK2 = 0 | LMTK2 = 0 | LYN 0 | MAP2K1 = 0 | MAP2K2 = 0 | MAP4K2 = 0 | MAPK1 = 0 | MAPK4 = 0 | MAPKAPK2 = 0 | MKNK1 = 0 | NTRK2 = 0 | NTRK3 = 0 | PAK4 = 0 | PBK 0 | PDGFRB 0 | PDK1 = 0

COc1cc(/C=C/C(=O)N2CCC=CC2=O)cc(OC)c1OC [Piperlongumine] (2.5 µM)
inactive: IRAK3 = 0 | JAK1 = 0 | LCK 0 | LIMK1 = 0 | LIMK2 = 0 | LMTK2 = 0 | LYN 0 | MAP2K1 = 0 | MAP2K2 = 0 | MAP4K2 = 0 | MAPK1 = 0 | MAPK4 = 0 | MAPKAPK2 = 0 | MKNK1 = 0 | NTRK2 = 0 | NTRK3 = 0 | PAK4 = 0 | PBK 0 | PDGFRB 0 | PDK1 = 0

CNC(=O)c1ccccc1Nc1nc(Nc2ccc3c(c2OC)CCC[C@H](N2CCN(CCO)CC2)C3)ncc1Cl (10 µM)
inactive: IRAK3 = 0 | JAK1 = 0 | LCK 0 | LIMK1 = 0 | LIMK2 = 0 | LMTK2 = 0 | LYN 0 | MAP2K1 = 0 | MAP2K2 = 0 | MAP4K2 = 0 | MAPK1 = 0 | MAPK4 = 0 | MAPKAPK2 = 0 | MKNK1 = 0 | NTRK2 = 0 | NTRK3 = 0 | PAK4 = 0 | PBK 0 | PDGFRB 0 | PDK1 = 0

CC(C)S(=O)(=O)c1ccc2nccc(Nc3ccc4scnc4c3)c2c1 (10 µM)
inactive: IRAK3 = 0 | JAK1 = 0 | LCK 0 | LIMK1 = 0 | LIMK2 = 0 | LMTK2 = 0 | LYN 0 | MAP2K1 = 0 | MAP2K2 = 0 | MAP4K2 = 0 | MAPK1 = 0 | MAPK4 = 0 | MAPKAPK2 = 0 | MKNK1 = 0 | NTRK2 = 0 | NTRK3 = 0 | PAK4 = 0 | PBK 0 | PDGFRB 0 | PDK1 = 0

O=Nc1c2[nH]c3ccccc3nc-2c2ccccc12 [IQ-1S (free acid)] (2.5 µM)
inactive: IRAK3 = 0 | JAK1 = 0 | LCK 0 | LIMK1 = 0 | LIMK2 = 0 | LMTK2 = 0 | LYN 0 | MAP2K1 = 0 | MAP2K2 = 0 | MAP4K2 = 0 | MAPK1 = 0 | MAPK4 = 0 | MAPKAPK2 = 0 | MKNK1 = 0 | NTRK2 = 0 | NTRK3 = 0 | PAK4 = 0 | PBK 0 | PDGFRB 0 | PDK1 = 0

CC(=O)c1c(C)c2cnc(Nc3ccc(N4CCN(C(=O)CNc5cccc6c5C(=O)N(C5CCC(=O)NC5=O)C6=O)CC4)cn3)nc2n(C2CCCC2)c1=O (stereo not given) (10 µM)
inactive: IRAK3 = 0 | JAK1 = 0 | LCK 0 | LIMK1 = 0 | LIMK2 = 0 | LMTK2 = 0 | LYN 0 | MAP2K1 = 0 | MAP2K2 = 0 | MAP4K2 = 0 | MAPK1 = 0 | MAPK4 = 0 | MAPKAPK2 = 0 | MKNK1 = 0 | NTRK2 = 0 | NTRK3 = 0 | PAK4 = 0 | PBK 0 | PDGFRB 0 | PDK1 = 0

CCCNC(=O)Nc1ccc(Oc2ncnc3cc(OC)c(OC)cc23)cc1Cl (2.5 µM)
inactive: IRAK3 = 0 | JAK1 = 0 | LCK 0 | LIMK1 = 0 | LIMK2 = 0 | LMTK2 = 0 | LYN 0 | MAP2K1 = 0 | MAP2K2 = 0 | MAP4K2 = 0 | MAPK1 = 0 | MAPK4 = 0 | MAPKAPK2 = 0 | MKNK1 = 0 | NTRK2 = 0 | NTRK3 = 0 | PAK4 = 0 | PBK 0 | PDGFRB 0 | PDK1 = 0

COc1ccc2cc(-c3nc(-c4ccc([S+](C)[O-])cc4)[nH]c3-c3ccncc3)ccc2c1 (stereo not given) [Tie2 kinase inhibitor 1] (2.5 µM)
inactive: IRAK3 = 0 | JAK1 = 0 | LCK 0 | LIMK1 = 0 | LIMK2 = 0 | LMTK2 = 0 | LYN 0 | MAP2K1 = 0 | MAP2K2 = 0 | MAP4K2 = 0 | MAPK1 = 0 | MAPK4 = 0 | MAPKAPK2 = 0 | MKNK1 = 0 | NTRK2 = 0 | NTRK3 = 0 | PAK4 = 0 | PBK 0 | PDGFRB 0 | PDK1 = 0

CCN(CC)c1ccc2cc(-c3nc4cc(C)ccc4o3)c(=O)oc2c1 (10 µM)
inactive: IRAK3 = 0 | JAK1 = 0 | LCK 0 | LIMK1 = 0 | LIMK2 = 0 | LMTK2 = 0 | LYN 0 | MAP2K1 = 0 | MAP2K2 = 0 | MAP4K2 = 0 | MAPK1 = 0 | MAPK4 = 0 | MAPKAPK2 = 0 | MKNK1 = 0 | NTRK2 = 0 | NTRK3 = 0 | PAK4 = 0 | PBK 0 | PDGFRB 0 | PDK1 = 0

C[C@H](Nc1ncnc2[nH]cnc12)c1cc2ccc(F)cc2nc1-c1ccccn1 (10 µM)
inactive: IRAK3 = 0 | JAK1 = 0 | LCK 0 | LIMK1 = 0 | LIMK2 = 0 | LMTK2 = 0 | LYN 0 | MAP2K1 = 0 | MAP2K2 = 0 | MAP4K2 = 0 | MAPK1 = 0 | MAPK4 = 0 | MAPKAPK2 = 0 | MKNK1 = 0 | NTRK2 = 0 | NTRK3 = 0 | PAK4 = 0 | PBK 0 | PDGFRB 0 | PDK1 = 0

Cc1ccc(NC(=O)c2ccc(CN(CCN(C)C)C(=O)c3cccnc3)cc2)cc1Nc1nccc(-c2cccnc2)n1 [PDGFRα kinase inhibitor 1] (10 µM)
inactive: IRAK3 = 0 | JAK1 = 0 | LCK 0 | LIMK1 = 0 | LIMK2 = 0 | LMTK2 = 0 | LYN 0 | MAP2K1 = 0 | MAP2K2 = 0 | MAP4K2 = 0 | MAPK1 = 0 | MAPK4 = 0 | MAPKAPK2 = 0 | MKNK1 = 0 | NTRK2 = 0 | NTRK3 = 0 | PAK4 = 0 | PBK 0 | PDGFRB 0 | PDK1 = 0

COc1ccc(-c2coc3cc(O)ccc3c2=O)cc1 [Formononetin] (10 µM)
inactive: IRAK3 = 0 | JAK1 = 0 | LCK 0 | LIMK1 = 0 | LIMK2 = 0 | LMTK2 = 0 | LYN 0 | MAP2K1 = 0 | MAP2K2 = 0 | MAP4K2 = 0 | MAPK1 = 0 | MAPK4 = 0 | MAPKAPK2 = 0 | MKNK1 = 0 | NTRK2 = 0 | NTRK3 = 0 | PAK4 = 0 | PBK 0 | PDGFRB 0 | PDK1 = 0
